Experimental data: PubChem BioAssay AID743454 (Peter MacCallum Cancer Centre, 2014)
This is one part, drawn at random, of about 18,000 reagents tested. Over the whole deposit, 450 (2.5%) are marked active. 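Single biological run; no consistent viability z cut-off exists, so the class columns, not z-scores, define the calls.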 A number with no mark means an inactive call.

Screen: 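Knock-downs lowering viability or raising caspase 3/7 activity in vorinostat-treated resistant cells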 (primary screen)
System: human HCT116-VR colon cancer cells, selected for vorinostat resistance
Knock-down reagent: siRNA pool against human genes, 40 nM siRNA pool
Time to read-out: vorinostat for 24 h, read-out about 72 h after transfection
Treatment: vorinostat at 2.5 µM final
Measured: 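Cell viability by CellTiter-Fluor and caspase 3/7 activity by luminescence, each scaled to mock wells per plate, duplicates averaged, then robust z-scored over all plates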
Direction: viability robust z-score: higher = more viable cells than screen typical; caspase robust z-score: higher = more caspase 3/7 activity than screen typical
Rule for the call: 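a knock-down is a hit when classed RV1 or RV2 for lowered viability, or CA1 or CA2 for caspase activation; those lethal without drug were dropped; hits were retested singly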

gene | viability hit class | caspase hit class | viability robust z-score | caspase robust z-score
BCL11B (BCL11 transcription factor B) | no change | no change | -0.54 | 0.03
OR2A2 (olfactory receptor family 2 subfamily A member 2) | no change | no change | -1.88 | 1.23
KRT7 (keratin 7) | no change | no change | -0.54 | -0.8
THPO (thrombopoietin) | no change | no change | -0.28 | -0.14
PTCHD1 (patched domain containing 1) | no change | no change | -0.25 | 1.21
SPON2 (spondin 2) | no change | no change | -0.16 | 1.47
DEFB136 (defensin beta 136) | no change | no change | -0.02 | -1.14
AGO2 (argonaute RISC catalytic component 2) | no change | no change | 0.49 | -0.8
MYG1 (MYG1 exonuclease) | no change | no change | -4.28 | 3.27
OR13G1 (olfactory receptor family 13 subfamily G member 1) | no change | no change | 0.46 | 0.1
ATP2C2 (ATPase secretory pathway Ca2+ transporting 2) | no change | no change | 0.42 | -0.36
NFKB2 (nuclear factor kappa B subunit 2) | no change | no change | 0.73 | -0.2
TLR7 (toll like receptor 7) | no change | no change | -0.82 | -1.13
COL20A1 (collagen type XX alpha 1 chain) | no change | no change | -3.16 | 1.27
ADGRA3 (adhesion G protein-coupled receptor A3) | no change | no change | 1.17 | -0.98
C2CD4A (C2 calcium dependent domain containing 4A) | no change | no change | 0.59 | -0.37
SMG7 (SMG7 nonsense mediated mRNA decay factor) | no change | no change | -0.73 | 0.29
TOP3B (DNA topoisomerase III beta) | no change | no change | -0.35 | 0.29
RPL3 (ribosomal protein L3) | no change | no change | -5.46 | -0.75
PRDM7 (PR/SET domain 7) | no change | no change | 0.46 | -0.79
TM4SF1 (transmembrane 4 L six family member 1) | no change | no change | -0.58 | -0.09
ZDHHC7 (zDHHC palmitoyltransferase 7) | no change | no change | 0 | -0.62
REEP1 (receptor accessory protein 1) | no change | no change | -0.04 | 0.95

4 successive records from above:
gene | viability hit class | caspase hit class | viability robust z-score | caspase robust z-score
ATP2C2 (ATPase secretory pathway Ca2+ transporting 2) | no change | no change | 0.42 | -0.36
NFKB2 (nuclear factor kappa B subunit 2) | no change | no change | 0.73 | -0.2
TLR7 (toll like receptor 7) | no change | no change | -0.82 | -1.13
COL20A1 (collagen type XX alpha 1 chain) | no change | no change | -3.16 | 1.27
